Common to all, as to test: log2 fold change, soluble protein after heating vs DMSO (PISA); higher = thermal stabilisation; K562 lysate, 10 uM; active = over 0.2 and 3.5 SD of the protein, either way, in both replicates (recomputed)
Compound in assay [1]: CN1CC[C@H](c2c(O)cc(O)c3c(=O)cc(-c4ccccc4Cl)oc23)[C@H](O)C1 [alvocidib]
The gist of the method:
(§1)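 Following dounce homogenisation of K562 pellets in PBS pH 7.4 with 1 mM MgCl2, crude extract at 1 mg/mL protein was incubated for 30 min with 10 μM compound. Aliquots were then heated for 3 min over 48°C-58°C and pooled, NP-40 was added to 0.5% at 4°C, and soluble protein was recovered as the supernatant at 21,000xg for 90 min. Channel-sum-equalised TMTpro 16plex LC-MS/MS quantified this protein. Each value, from duplicates, is a log-two fold change in thermal stability relative to solvent controls.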

Sequences of proteins named here, by UniProt entry; tags and fusion partners are left off. A change or cut given only in a name is not applied to a line headed by its entry.
UniProt Q6YBV0: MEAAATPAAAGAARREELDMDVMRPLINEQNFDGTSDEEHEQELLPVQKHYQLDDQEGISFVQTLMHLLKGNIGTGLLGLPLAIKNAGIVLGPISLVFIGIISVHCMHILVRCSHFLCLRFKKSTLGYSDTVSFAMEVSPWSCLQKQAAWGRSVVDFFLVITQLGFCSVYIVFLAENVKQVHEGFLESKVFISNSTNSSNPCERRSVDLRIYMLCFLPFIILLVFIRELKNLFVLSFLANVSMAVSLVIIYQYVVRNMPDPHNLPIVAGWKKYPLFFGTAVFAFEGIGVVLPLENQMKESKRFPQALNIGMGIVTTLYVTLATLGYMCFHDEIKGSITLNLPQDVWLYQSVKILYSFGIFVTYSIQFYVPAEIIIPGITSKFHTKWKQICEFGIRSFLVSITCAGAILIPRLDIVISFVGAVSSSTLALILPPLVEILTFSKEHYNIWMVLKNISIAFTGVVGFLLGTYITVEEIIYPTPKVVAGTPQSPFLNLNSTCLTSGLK
UniProt A1A5C7: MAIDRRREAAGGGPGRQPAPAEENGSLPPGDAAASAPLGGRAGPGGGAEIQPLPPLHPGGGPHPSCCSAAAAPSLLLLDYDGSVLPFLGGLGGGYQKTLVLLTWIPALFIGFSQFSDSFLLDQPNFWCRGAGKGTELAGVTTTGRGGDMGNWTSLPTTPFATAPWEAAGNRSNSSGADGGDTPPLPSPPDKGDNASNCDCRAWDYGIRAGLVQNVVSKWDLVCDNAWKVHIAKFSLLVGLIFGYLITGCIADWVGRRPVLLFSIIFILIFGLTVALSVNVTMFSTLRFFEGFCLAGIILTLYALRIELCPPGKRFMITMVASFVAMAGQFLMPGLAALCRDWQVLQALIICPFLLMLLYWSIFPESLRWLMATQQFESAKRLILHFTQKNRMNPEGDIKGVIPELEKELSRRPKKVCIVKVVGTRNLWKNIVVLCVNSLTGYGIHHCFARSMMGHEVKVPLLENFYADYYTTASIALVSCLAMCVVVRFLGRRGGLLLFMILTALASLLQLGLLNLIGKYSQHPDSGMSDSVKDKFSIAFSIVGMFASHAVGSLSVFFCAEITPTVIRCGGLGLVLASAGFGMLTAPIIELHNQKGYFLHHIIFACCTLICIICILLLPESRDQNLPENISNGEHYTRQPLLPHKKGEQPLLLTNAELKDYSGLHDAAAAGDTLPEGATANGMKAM
UniProt O95391: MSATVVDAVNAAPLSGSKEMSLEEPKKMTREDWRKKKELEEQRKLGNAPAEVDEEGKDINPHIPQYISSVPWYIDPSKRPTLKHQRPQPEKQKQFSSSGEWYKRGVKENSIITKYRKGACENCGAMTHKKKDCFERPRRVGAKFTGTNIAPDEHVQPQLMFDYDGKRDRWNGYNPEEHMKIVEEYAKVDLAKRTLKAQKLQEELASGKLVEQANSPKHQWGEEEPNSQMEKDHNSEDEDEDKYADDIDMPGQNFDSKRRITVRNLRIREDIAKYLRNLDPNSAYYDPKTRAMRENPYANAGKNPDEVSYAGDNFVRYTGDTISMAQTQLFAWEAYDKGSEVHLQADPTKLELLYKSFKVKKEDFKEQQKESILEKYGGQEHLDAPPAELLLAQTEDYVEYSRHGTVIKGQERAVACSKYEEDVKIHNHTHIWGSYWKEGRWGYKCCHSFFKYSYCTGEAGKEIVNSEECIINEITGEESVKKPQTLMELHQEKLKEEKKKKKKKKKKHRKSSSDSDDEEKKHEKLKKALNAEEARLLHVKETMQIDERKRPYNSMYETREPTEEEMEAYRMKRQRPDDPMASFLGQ
UniProt Q9HAB3: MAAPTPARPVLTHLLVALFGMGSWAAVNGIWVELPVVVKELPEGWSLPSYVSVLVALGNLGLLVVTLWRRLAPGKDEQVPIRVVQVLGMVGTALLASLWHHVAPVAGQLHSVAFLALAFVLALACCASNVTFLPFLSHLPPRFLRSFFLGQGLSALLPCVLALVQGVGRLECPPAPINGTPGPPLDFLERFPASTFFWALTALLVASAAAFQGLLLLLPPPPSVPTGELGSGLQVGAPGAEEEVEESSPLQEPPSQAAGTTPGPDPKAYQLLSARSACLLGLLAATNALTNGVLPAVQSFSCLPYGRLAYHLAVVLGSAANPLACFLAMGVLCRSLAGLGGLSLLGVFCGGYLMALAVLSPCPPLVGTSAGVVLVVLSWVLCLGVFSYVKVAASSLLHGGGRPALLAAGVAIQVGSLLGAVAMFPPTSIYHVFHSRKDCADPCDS
UniProt Q92504: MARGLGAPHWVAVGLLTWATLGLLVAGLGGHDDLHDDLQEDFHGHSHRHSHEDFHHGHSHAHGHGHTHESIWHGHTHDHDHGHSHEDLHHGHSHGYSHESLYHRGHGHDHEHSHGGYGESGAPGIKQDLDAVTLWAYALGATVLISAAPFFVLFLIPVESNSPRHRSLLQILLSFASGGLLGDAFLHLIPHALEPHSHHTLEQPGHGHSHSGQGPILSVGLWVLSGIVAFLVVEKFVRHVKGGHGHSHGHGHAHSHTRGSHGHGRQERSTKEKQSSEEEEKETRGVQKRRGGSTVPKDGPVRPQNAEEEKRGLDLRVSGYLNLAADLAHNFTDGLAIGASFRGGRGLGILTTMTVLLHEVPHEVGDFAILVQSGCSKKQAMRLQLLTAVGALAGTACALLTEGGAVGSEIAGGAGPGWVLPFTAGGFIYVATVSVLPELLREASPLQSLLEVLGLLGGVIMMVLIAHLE
UniProt Q9Y2D2: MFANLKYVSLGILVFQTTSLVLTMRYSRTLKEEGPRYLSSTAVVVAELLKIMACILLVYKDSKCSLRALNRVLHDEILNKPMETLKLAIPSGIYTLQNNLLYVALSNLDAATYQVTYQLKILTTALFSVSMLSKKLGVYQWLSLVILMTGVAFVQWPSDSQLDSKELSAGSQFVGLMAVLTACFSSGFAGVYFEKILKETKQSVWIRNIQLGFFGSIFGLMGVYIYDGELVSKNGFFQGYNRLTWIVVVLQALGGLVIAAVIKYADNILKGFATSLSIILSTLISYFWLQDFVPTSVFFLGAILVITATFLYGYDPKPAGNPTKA
UniProt Q96H78: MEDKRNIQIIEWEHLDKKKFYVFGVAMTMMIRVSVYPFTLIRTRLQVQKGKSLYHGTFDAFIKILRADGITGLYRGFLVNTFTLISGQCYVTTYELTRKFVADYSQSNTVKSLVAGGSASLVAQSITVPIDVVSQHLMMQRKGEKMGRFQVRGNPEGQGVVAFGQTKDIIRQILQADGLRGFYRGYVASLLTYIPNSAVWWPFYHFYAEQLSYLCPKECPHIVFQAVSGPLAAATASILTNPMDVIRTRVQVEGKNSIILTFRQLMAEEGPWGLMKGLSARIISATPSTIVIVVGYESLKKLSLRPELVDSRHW
UniProt Q70HW3: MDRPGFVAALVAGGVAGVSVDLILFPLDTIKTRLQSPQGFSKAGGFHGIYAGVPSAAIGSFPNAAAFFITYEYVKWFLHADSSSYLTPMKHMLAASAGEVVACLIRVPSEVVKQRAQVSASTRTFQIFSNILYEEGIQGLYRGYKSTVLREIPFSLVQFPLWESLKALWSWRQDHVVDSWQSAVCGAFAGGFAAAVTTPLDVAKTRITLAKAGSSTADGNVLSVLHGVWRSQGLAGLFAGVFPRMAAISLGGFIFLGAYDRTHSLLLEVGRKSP

Compound in assay [2]: CN1CCc2c(c3ccccc3n2Cc2ccc(C(=O)NO)cc2)C1 [Tubastatin A]
Put shortly:
as §1

Compound in assay [3]: CNC(=O)C1=CC=CC=C1NC2=NC(=NC=C2Cl)NC3=C(C=C(C=C3)N4CCOCC4)OC
The gist of the method:
as §1

Compound in assay [4]: CNc1nc(-c2ccc3c(N)n[nH]c3c2)cc(N2C[C@@H](C(=O)NC3CCCCC3)CC[C@H]2C)n1
The gist of the method: as §1

Compound in assay [5]: COC(=O)N[C@@H](C)CNc1nccc(-c2cn(C(C)C)nc2-c2cc(Cl)cc(NS(C)(=O)=O)c2F)n1 [encorafenib]
The gist of the method:
as §1

Compound in assay [6]: COC(=O)[C@H](CCSC)NC(=O)C1=C(C=C(C=C1)NC[C@H](CS)N)C2=CC=CC=C2
The gist of the method:
as §1

Compound in assay [7]: COc1cc(Nc2ncc3c(n2)-c2ccc(Cl)cc2C(c2c(F)cccc2OC)=NC3)ccc1C(=O)O [alisertib]
The gist of the method:
as §1

Compound in assay [8]: COc1cc2nc(-c3cc(F)ccc3O)nc(N[C@@H]3CNC[C@H]3C(C)(C)O)c2cc1OC
The gist of the method:
as §1

Compound in assay [9]: COc1cc2ncnc(Nc3ccc(F)c(Cl)c3)c2cc1OCCCN1CCOCC1 [gefitinib]
Put shortly:
as §1

Compound in assay [10]: CS(=O)(=O)CCNCc1ccc(-c2ccc3ncnc(Nc4ccc(OCc5cccc(F)c5)c(Cl)c4)c3c2)o1 [lapatinib]
The gist of the method:
as §1

Compound in assay [11]: CS(=O)(=O)N1CCN(Cc2cc3nc(-c4cccc5[nH]ncc45)nc(N4CCOCC4)c3s2)CC1 [pictilisib]
Put shortly:
as §1

Compound in assay [12]: C[C@@H](Oc1cc(-c2cnn(C3CCNCC3)c2)cnc1N)c1c(Cl)ccc(F)c1Cl [crizotinib]
The gist of the method:
as §1

Compound in assay [13]: C[C@H](C1=CC=C(C=C1)C(=O)NC2=C3C=CNC3=NC=C2)N
Put shortly: as §1

Compound in assay [14]: C[C@H](Nc1ncnc2nc[nH]c12)c1cc2cccc(Cl)c2c(=O)n1-c1ccccc1 [duvelisib]
Put shortly:
as §1

Compound in assay [15]: Cc1cc(Nc2cc(CN3CCOCC3)c3nc(C)c(Cc4ccc(Cl)cc4F)n3n2)n[nH]1 [gandotinib]
Put shortly:
as §1

Compound in assay [16]: Cc1cc(Nc2cc(N3CCN(C)CC3)nc(Sc3ccc(NC(=O)C4CC4)cc3)n2)n[nH]1 [tozasertib]
Put shortly: as §1

Compound in assay [17]: Cc1ccc(-n2nc(C(C)(C)C)cc2NC(=O)Nc2ccc(OCCN3CCOCC3)c3ccccc23)cc1 [doramapimod]
The gist of the method:
as §1

Compound in assay [18]: Cc1ccc(NC(=O)c2ccc(CN3CC[C@H](N(C)C)C3)c(C(F)(F)F)c2)cc1Nc1nccc(-c2cncnc2)n1 [bafetinib]
Put shortly: as §1

Compound in assay [19]: Cc1cccc(CC(=O)N2CCc3c2ccc(-c2cn(C)c4ncnc(N)c24)c3F)n1
Put shortly:
as §1

Compound in assay [20]: CNC(=O)c1ccc(Nc2ncc(C(F)(F)F)c(NCc3nccnc3N(C)S(C)(=O)=O)n2)cc1 [defactinib]
Put shortly: as §1

The text below walks through data of the supplement of paper PMC10849652.

The other results are listed elsewhere or left out.

In the case of SLC36A4 (UniProt Q6YBV0), the log2 fold change in assay [1] was inactive: -0.108; in assay [2], inactive: -0.059; in assay [3], inactive: -0.062; in [4], inactive: 0.187; in assay [5] it was inactive: 0.012; in assay [6], inactive: 0.084. Further, the log2 fold change in [7] is inactive: -0.22; in assay [8] it was inactive: 0.022; in [9], inactive: 0.097; in assay [10] it was inactive: 0.013; in [11], inactive: -0.214; in [12], inactive: -0.04. For the same target, the log2 fold change was inactive: 0.018 in assay [13]; inactive: -0.121 in assay [14]; inactive: 0.093 in [15]; inactive: -0.044 in assay [16]; inactive: -0.021 in assay [17]; inactive: -0.005 in assay [18]. The log2 fold change in [19] is inactive: 0.162.

Turning to SLC22A23 (UniProt A1A5C7), the log2 fold change is inactive: -0.15 in [1]; inactive: 0.035 in assay [2]; inactive: -0.028 in assay [3]; inactive: -0.062 in assay [20]; inactive: 0.041 in assay [4]; inactive: -0.08 in assay [5]. The log2 fold change in assay [6] was inactive: 0.011; in assay [8], inactive: 0.081; in [10], inactive: -0.13; in [11], inactive: -0.011; in [12], inactive: 0.013; in assay [13], inactive: -0.21. The log2 fold change was inactive: 0.075 in assay [14]; inactive: 0.06 in assay [15]; inactive: -0.011 in assay [16]; inactive: -0.051 in [17]; inactive: -0.147 in [18]; inactive: 0 in [19].

On to SLU7 (UniProt O95391), for which the log2 fold change was inactive: -0.086 in [1]; inactive: -0.042 in assay [2]; inactive: -0.065 in assay [3]; inactive: 0.016 in assay [20]; inactive: -0.006 in assay [4]; inactive: 0.071 in [5]. Further, the log2 fold change in [6] is inactive: 0.021; in assay [7], inactive: 0.002; in assay [9], inactive: 0.026; in [11], inactive: 0.006; in assay [12] it was inactive: 0.054; in [13], inactive: -0.187. For the same target, the log2 fold change in assay [14] was inactive: 0.06; in assay [15], inactive: 0.255; in [16], inactive: 0.028; in assay [17] it was inactive: -0.099; in [18] it was inactive: -0.267; in [19], active: 0.367.

As to SLC52A2 (UniProt Q9HAB3), the log2 fold change in [1] was inactive: -0.027; in assay [2], inactive: 0.123; in [3], inactive: -0.01; in [20] it was inactive: -0.085; in [4], inactive: -0.019; in [5], inactive: 0.085. The log2 fold change was inactive: 0.038 in [6]; inactive: 0.172 in assay [8]; inactive: -0.194 in [10]; inactive: -0.008 in assay [11]; inactive: 0.003 in [12]; inactive: -0.082 in [13]. For the same target, the log2 fold change is inactive: 0.002 in assay [14]; inactive: 0.064 in assay [15]; inactive: 0.133 in assay [16]; inactive: -0.018 in [17]; inactive: 0.004 in assay [18]; inactive: 0.032 in [19].

Turning to SLC39A7 (UniProt Q92504), the log2 fold change in assay [1] is inactive: 0.01; in assay [2], inactive: -0.009; in assay [3], inactive: -0.053; in [20], inactive: -0.018; in [5], inactive: -0.004; in [6], inactive: -0.143. The log2 fold change in assay [7] was inactive: -0.034; in [8], inactive: 0.002; in [9], inactive: 0.028; in assay [10] it was inactive: -0.009; in [11], inactive: -0.012; in assay [12], inactive: 0.006. The log2 fold change in [13] was inactive: -0.062; in [15] it was inactive: 0.147; in assay [16], inactive: 0.07; in assay [17], inactive: -0.011; in assay [18] it was inactive: -0.013; in assay [19], inactive: 0.038.

Take SLC35A3 isoform 2 (UniProt Q9Y2D2): the log2 fold change in [1] is inactive: -0.406; in assay [2], inactive: -0.079; in assay [3], inactive: 0.016; in [20], inactive: 0.069; in assay [5], inactive: 0.067; in assay [6] it was inactive: -0.019. In addition, the log2 fold change in assay [7] was inactive: 0.069; in [8], inactive: -0.019; in assay [9], inactive: 0.198; in assay [10], inactive: -0.097; in assay [12] it was inactive: -0.267; in assay [13], active: -1.02. Besides, the log2 fold change was inactive: 0.215 in assay [15], inactive: 0.032 in assay [16], inactive: 0.095 in assay [17] and inactive: 0.332 in assay [19].

SLC25A44 (UniProt Q96H78): the log2 fold change in assay [1] is inactive: -0.05; in [2], inactive: 0.007; in assay [3] it was inactive: -0.221; in [20] it was inactive: 0.064; in assay [4] it was inactive: 0.14; in [5] it was inactive: 0.015. Also, the log2 fold change in assay [6] is inactive: -0.013; in assay [8] it was inactive: 0.099; in assay [10], inactive: -0.031; in assay [11], inactive: -0.014; in assay [12], inactive: -0.034; in assay [13], inactive: -0.069. The log2 fold change in [14] was inactive: 0.233; in assay [15], inactive: 0.047; in assay [16] it was inactive: -0.008; in assay [17] it was inactive: -0.01; in [18] it was inactive: -0.037; in [19], inactive: 0.166.

With SLC25A26 (UniProt Q70HW3), the log2 fold change in assay [1] was inactive: -0.083; in assay [2], inactive: 0.041; in assay [3] it was inactive: 0.114; in assay [20] it was inactive: 0.012; in assay [4], inactive: -0.036; in [5] it was inactive: 0.048. For the same target, the log2 fold change in assay [6] was inactive: -0.102; in assay [7] it was inactive: 0.027; in assay [8], inactive: -0.033; in assay [9], inactive: 0.124; in assay [10], inactive: 0.086; in [11], inactive: -0.009. Also, the log2 fold change was inactive: 0.052 in assay [12]; inactive: -0.187 in assay [13]; inactive: 0.033 in assay [14]; inactive: 0.1 in assay [15]; inactive: 0.107 in [16]; inactive: 0.049 in [17]. The log2 fold change in assay [18] was inactive: -0.027; in assay [19], inactive: 0.113.
